Data: patent US20230364074A1, “Compounds and Compositions for Disrupting Programmed Ribosomal Frameshifting” (YALE UNIVERSITY, priority 2020, published 2023)

System: SARS-CoV-2 FSE (−1 PRF)
Experiment: cells
Assay type: cell-based
Details: Severe acute respiratory syndrome coronavirus 2, HEK-293T, 24 h

Cc1cc(/C=C/c2ccc3cc(N(C)C)ccc3[n+]2C)c(C)n1-c1ccccc1 [PYRVINIUM PAMOATE]
inhibition at 10 µM (read-out: PERCENT EFFECT 2 (Decreased GFP/Red ratio)): 112%
activation at 10 µM (read-out: PERCENT EFFECT (Increased GFP/Red Ratio)): -58.2%
